Results taken from the supplement of paper PMC8256030.
Some of the results follow. Single values are uncertain here, since repeats match poorly.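 HEK293T cells were given each compound shortly before transfection with a reporter in which red mCherry is followed by the SARS-CoV-2 frameshift element and then GFP in the −1 frame, so GFP appears only after frameshifting.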

These molecules were tested on HEK293T (assay: percent viability (nuclei count) relative to control; higher = more viable cells). Settings: 10 µM; 24 h.
With `CCCc1c(OCCCOc2cc(O)c(-c3ccc(F)cc3)cc2CC)cccc1Oc1ccccc1C(=O)O` [etalocib] the percent viability was 131%. `Cc1onc(-c2ccccc2)c1C(=O)N[C@@H]1C(=O)N2[C@@H]1SC(C)(C)[C@@H]2C(=O)O` [Oxacillin] showed a percent viability of 131%. `CC(C)[C@H](N)C(=O)OCCOCn1cnc2c(=O)nc(N)[nH]c21` [Valaciclovir] gave a percent viability of 203%. Work on `C#C[C@]1(O)CC[C@H]2[C@@H]3CCC4=CCCC[C@@H]4[C@H]3CC[C@@]21C` [lynestrenol] yielded a percent viability of 25.2%. `CCCCN(CCCC)CC(O)c1cc(Cl)cc2c1-c1ccc(Cl)cc1/C2=C/c1ccc(Cl)cc1` (stereo not given) [lumefantrine] was tested, and the percent viability was 233%.
